Test results taken from paper PMC5993797.
Read-outs that look alike come from different tables or passages of the source. These are yes or no findings as the source states them, for the method shown. In cells and extracts the contact can be indirect. Here binding means that the protein was enriched with, or labelled near, the bait; the list need not be complete.

Protein sequences, listed by entry. Tags and fused reporters are not part of them.
UniProt Q92804: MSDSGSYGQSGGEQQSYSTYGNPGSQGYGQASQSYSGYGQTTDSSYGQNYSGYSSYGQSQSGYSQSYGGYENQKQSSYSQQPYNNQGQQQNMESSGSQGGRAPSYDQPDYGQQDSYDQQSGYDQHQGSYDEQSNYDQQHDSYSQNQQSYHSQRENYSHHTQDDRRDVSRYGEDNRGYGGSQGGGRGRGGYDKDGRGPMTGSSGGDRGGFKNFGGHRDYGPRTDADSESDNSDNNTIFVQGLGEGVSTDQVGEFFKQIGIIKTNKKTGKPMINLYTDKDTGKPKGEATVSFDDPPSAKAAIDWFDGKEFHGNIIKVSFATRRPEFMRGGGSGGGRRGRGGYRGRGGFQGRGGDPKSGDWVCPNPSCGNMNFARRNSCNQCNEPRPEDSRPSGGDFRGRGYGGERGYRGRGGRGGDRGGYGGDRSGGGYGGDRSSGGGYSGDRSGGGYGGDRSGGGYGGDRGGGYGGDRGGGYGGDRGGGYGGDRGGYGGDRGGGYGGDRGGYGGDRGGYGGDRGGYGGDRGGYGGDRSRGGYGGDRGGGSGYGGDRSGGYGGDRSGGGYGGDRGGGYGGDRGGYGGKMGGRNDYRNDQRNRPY
UniProt Q01844: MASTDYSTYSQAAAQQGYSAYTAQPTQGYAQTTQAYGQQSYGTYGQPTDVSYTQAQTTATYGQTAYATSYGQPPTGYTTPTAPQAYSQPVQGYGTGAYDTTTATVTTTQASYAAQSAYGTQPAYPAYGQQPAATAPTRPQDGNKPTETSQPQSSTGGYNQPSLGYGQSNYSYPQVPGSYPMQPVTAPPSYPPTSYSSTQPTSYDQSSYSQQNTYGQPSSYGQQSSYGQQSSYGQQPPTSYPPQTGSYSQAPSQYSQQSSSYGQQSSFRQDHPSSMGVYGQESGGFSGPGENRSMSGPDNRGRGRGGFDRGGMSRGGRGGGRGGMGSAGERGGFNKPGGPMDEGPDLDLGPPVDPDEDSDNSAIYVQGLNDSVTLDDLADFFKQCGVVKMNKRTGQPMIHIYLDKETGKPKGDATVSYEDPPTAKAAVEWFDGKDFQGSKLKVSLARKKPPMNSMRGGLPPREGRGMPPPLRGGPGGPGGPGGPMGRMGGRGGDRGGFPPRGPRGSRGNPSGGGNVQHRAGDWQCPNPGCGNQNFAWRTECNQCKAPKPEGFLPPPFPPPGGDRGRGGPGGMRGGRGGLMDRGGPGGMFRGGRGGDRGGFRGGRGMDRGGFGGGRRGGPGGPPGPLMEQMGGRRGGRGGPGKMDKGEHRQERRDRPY
UniProt Q16531: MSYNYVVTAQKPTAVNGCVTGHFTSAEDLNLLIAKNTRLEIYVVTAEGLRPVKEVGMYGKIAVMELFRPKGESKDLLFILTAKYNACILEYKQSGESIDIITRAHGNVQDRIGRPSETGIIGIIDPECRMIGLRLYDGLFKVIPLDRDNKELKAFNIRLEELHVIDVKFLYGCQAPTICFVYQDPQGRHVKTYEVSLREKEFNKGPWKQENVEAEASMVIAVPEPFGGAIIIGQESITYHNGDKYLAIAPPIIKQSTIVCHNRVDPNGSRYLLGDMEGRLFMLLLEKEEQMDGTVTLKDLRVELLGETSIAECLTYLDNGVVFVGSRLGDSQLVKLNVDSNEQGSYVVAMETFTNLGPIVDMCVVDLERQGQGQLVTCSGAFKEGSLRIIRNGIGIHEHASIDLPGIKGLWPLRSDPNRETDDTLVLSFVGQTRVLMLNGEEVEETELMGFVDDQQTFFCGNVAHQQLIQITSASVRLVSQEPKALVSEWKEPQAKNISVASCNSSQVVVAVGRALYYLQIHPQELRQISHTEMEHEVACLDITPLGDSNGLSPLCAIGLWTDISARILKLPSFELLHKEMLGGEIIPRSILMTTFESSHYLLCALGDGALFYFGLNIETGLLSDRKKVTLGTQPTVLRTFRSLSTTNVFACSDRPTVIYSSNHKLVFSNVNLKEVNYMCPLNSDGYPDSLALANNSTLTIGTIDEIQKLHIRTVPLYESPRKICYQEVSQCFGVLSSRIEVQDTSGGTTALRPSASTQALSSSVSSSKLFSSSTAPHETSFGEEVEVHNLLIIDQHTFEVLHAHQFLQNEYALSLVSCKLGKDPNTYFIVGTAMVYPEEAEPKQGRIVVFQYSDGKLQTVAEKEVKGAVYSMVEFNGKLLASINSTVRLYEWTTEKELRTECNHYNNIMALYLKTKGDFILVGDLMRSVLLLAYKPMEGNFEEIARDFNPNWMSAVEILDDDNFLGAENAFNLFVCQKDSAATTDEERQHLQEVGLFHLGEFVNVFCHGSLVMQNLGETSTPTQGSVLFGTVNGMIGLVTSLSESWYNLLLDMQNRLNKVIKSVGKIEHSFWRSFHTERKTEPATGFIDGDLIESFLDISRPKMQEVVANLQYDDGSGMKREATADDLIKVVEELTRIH
UniProt P04792: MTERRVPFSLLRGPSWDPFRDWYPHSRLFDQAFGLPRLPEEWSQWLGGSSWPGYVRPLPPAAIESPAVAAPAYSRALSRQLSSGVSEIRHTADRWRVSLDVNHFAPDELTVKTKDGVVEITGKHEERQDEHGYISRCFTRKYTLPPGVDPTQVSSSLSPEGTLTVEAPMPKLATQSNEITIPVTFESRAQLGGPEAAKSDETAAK
UniProt P27708: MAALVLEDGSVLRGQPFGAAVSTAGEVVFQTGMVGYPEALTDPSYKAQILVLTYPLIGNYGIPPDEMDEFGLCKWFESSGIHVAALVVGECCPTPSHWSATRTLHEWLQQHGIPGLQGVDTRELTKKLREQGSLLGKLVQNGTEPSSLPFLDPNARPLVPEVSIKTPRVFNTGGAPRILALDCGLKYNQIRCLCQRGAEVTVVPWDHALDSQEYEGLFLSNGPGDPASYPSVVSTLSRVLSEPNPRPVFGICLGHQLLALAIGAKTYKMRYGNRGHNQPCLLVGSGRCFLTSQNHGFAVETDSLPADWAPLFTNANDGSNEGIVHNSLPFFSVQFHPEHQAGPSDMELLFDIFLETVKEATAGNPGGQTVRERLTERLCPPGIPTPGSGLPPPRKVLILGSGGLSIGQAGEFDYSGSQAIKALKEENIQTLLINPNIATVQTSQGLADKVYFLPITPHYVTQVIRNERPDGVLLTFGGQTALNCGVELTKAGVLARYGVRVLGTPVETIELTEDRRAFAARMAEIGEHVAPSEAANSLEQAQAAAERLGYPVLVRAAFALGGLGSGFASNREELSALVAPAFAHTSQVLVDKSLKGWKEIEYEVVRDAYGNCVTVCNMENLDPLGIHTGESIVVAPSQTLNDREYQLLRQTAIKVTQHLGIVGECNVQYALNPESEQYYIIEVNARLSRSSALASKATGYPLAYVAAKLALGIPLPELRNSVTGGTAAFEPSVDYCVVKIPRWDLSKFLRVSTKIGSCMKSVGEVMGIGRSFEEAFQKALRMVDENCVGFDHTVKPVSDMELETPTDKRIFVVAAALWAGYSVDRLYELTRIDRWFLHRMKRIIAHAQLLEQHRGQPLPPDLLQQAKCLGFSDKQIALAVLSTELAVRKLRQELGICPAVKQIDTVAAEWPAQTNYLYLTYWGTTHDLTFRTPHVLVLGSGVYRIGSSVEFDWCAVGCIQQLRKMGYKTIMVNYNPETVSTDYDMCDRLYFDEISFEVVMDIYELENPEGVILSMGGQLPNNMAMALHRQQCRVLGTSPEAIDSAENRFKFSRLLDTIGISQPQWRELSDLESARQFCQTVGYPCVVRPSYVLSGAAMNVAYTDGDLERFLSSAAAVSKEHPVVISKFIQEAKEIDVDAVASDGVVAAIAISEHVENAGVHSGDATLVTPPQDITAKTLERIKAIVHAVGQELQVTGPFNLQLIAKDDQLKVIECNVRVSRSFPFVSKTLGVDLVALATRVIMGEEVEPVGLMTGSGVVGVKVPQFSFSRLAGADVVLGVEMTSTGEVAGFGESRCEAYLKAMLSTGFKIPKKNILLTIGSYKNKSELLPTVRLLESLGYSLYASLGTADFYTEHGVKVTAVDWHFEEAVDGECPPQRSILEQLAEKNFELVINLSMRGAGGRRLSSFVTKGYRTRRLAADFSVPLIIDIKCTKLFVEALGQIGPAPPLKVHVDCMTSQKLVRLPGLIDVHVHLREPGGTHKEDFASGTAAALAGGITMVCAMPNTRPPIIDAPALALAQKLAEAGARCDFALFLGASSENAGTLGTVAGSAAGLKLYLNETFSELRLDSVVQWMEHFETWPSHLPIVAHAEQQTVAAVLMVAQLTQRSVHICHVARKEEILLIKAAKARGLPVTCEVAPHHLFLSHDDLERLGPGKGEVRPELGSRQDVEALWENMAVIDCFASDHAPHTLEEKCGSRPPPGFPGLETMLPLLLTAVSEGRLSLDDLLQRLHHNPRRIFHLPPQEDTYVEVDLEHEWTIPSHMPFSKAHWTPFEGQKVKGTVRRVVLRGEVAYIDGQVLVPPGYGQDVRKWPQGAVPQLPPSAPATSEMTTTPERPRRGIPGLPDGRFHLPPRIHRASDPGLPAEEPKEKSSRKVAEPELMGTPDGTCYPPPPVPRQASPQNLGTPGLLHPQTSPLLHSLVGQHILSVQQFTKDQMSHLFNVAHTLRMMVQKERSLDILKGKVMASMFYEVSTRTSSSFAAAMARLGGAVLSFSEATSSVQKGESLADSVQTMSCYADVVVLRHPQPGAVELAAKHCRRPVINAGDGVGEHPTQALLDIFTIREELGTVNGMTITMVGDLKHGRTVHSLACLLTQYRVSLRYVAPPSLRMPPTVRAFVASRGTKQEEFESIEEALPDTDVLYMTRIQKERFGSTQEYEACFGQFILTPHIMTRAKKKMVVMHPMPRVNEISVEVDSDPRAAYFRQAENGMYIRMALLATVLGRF
UniProt P11940: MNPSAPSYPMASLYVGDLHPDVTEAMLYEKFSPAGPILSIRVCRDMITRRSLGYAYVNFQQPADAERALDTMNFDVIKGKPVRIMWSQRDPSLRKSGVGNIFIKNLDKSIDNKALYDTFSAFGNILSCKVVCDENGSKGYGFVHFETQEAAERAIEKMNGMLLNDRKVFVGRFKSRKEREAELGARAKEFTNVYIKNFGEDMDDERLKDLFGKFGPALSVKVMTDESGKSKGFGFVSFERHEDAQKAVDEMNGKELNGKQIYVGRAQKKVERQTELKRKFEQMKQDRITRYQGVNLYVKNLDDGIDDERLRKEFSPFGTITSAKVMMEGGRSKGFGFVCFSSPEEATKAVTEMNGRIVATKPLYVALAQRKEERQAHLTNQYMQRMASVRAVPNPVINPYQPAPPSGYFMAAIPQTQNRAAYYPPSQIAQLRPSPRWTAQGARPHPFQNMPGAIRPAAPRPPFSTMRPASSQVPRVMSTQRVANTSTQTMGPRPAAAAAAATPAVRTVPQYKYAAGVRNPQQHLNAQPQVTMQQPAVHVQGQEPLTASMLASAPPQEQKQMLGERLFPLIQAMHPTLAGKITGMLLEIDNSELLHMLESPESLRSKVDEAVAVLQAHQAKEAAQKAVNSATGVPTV
UniProt Q9Y265: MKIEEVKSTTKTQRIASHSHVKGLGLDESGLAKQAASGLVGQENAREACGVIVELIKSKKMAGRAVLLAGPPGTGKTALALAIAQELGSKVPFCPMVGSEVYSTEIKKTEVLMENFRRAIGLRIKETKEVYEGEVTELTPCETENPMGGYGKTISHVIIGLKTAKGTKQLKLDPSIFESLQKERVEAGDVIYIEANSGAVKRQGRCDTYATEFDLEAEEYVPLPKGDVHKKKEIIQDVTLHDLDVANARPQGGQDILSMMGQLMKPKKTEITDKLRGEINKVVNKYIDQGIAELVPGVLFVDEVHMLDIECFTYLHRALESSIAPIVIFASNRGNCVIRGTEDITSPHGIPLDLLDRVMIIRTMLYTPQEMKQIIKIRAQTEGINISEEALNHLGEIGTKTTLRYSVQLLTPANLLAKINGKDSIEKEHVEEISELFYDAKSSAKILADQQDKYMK

T1: MATR3 (human (endogenous in HeLa)) (UniProt P43243)
T1 sequence: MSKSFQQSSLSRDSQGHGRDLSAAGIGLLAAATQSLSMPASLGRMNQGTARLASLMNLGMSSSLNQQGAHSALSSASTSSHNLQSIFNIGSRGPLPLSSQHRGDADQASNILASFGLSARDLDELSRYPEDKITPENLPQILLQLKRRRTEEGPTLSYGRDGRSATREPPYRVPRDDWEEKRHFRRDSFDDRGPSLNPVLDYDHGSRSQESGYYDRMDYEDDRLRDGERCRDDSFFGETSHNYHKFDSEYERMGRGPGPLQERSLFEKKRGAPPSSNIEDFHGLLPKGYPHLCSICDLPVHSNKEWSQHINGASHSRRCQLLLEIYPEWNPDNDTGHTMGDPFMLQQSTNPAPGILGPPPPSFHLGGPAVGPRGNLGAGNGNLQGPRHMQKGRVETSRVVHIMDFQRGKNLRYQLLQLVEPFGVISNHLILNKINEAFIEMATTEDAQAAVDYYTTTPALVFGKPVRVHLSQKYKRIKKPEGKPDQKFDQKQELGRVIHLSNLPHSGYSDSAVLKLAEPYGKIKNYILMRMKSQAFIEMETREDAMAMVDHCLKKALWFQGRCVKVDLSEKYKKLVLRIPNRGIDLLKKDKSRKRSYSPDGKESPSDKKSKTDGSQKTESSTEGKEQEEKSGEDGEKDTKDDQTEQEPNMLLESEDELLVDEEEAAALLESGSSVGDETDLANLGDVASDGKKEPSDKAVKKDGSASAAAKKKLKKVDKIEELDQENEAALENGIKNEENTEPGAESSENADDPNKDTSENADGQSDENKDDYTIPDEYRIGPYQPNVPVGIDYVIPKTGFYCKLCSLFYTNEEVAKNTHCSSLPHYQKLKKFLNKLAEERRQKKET


What was measured:
[1] = target: SNRPC subunit of the U1 snRNP (human (endogenous in HeLa)) (UniProt P09234); assay: affinity purification with mass spectrometry; IP of the U1 snRNP machinery from HeLa nuclear extract, TCA precipitated, peptides labelled by tandem mass tag, MS3 on an Orbitrap Fusion
[2] = target: T1, MATR3 (human (endogenous in HeLa)); assay: affinity purification with mass spectrometry; IPs of FUS, EWSR1, TAF15 or MATR3 from HeLa nuclear extract, TCA precipitated, shotgun mass spectrometry
[3] = target: TAF15 (human (endogenous in HeLa)) (UniProt Q92804); assay: as above
[4] = target: SNRPC subunit of the U1 snRNP (human (endogenous in HeLa)) (UniProt P09234); assay: affinity purification with mass spectrometry; IP of the U1 snRNP machinery from HeLa nuclear extract, TCA precipitated, peptides labelled by tandem mass tag, MS3 on an Orbitrap Fusion; remark: listed apart in the source

binding [2]	also measured	Molecule
	binding [1]: binds	EWSR1 (from UniProt Q01844 1-656)
binds		DDB1 (from UniProt Q16531 1-1140)
binds		HNRNPK (from UniProt P61978 1-463)
binds		NUMA1 (from UniProt Q14980 1-2115)
	binding [1]: binds	HSPB1 (from UniProt P04792 1-205)
binds		CAD (from UniProt P27708 1-2225)
	binding [3]: binds	PABPC1 (from UniProt P11940 1-636)
binds		RUVBL1 (from UniProt Q9Y265 1-456)
	binding [4]: binds	TIA1 (protein, UniProt P31483 1-386) MEDEMPKTLYVGNLSRDVTEALILQLFSQIGPCKNCKMIMDTAGNDPYCFVEFHEHRHAAAALAAMNGRKIMGKEVKVNWATTPSSQKKDTSSSTVVSTQRSQDHFHVFVGDLSPEITTEDIKAAFAPFGRISDARVVKDMATGKSKGYGFVSFFNKWDAENAIQQMGGQWLGGRQIRTNWATRKPPAPKSTYESNTKQLSYDEVVNQSSPSNCTVYCGGVTSGLTEQLMRQTFSPFGQIMEIRVFPDKGYSFVRFNSHESAAHAIVSVNGTTIEGHVVKCYWGKETLDMINPVQQQNQIGYPQPYGQWGQWYGNAQQIGQYMPNGWQVPAYGMYGQAWNQQGFNQTQSSAPWMGPNYGVQPPQGQNGSMLPNQPSGYRVAGYETQ
	binding [4]: binds	CPSF1 (protein, UniProt Q10570 1-1443) MYAVYKQAHPPTGLEFSMYCNFFNNSERNLVVAGTSQLYVYRLNRDAEALTKNDRSTEGKAHREKLELAASFSFFGNVMSMASVQLAGAKRDALLLSFKDAKLSVVEYDPGTHDLKTLSLHYFEEPELRDGFVQNVHTPRVRVDPDGRCAAMLVYGTRLVVLPFRRESLAEEHEGLVGEGQRSSFLPSYIIDVRALDEKLLNIIDLQFLHGYYEPTLLILFEPNQTWPGRVAVRQDTCSIVAISLNITQKVHPVIWSLTSLPFDCTQALAVPKPIGGVVVFAVNSLLYLNQSVPPYGVALNSLTTGTTAFPLRTQEGVRITLDCAQATFISYDKMVISLKGGEIYVLTLITDGMRSVRAFHFDKAAASVLTTSMVTMEPGYLFLGSRLGNSLLLKYTEKLQEPPASAVREAADKEEPPSKKKRVDATAGWSAAGKSVPQDEVDEIEVYGSEAQSGTQLATYSFEVCDSILNIGPCANAAVGEPAFLSEEFQNSPEPDLEIVVCSGHGKNGALSVLQKSIRPQVVTTFELPGCYDMWTVIAPVRKEEEDNPKGEGTEQEPSTTPEADDDGRRHGFLILSREDSTMILQTGQEIMELDTSGFATQGPTVFAGNIGDNRYIVQVSPLGIRLLEGVNQLHFIPVDLGAPIVQCAVADPYVVIMSAEGHVTMFLLKSDSYGGRHHRLALHKPPLHHQSKVITLCLYRDLSGMFTTESRLGGARDELGGRSGPEAEGLGSETSPTVDDEEEMLYGDSGSLFSPSKEEARRSSQPPADRDPAPFRAEPTHWCLLVRENGTMEIYQLPDWRLVFLVKNFPVGQRVLVDSSFGQPTTQGEARREEATRQGELPLVKEVLLVALGSRQSRPYLLVHVDQELLIYEAFPHDSQLGQGNLKVRFKKVPHNINFREKKPKPSKKKAEGGGAEEGAGARGRVARFRYFEDIYGYSGVFICGPSPHWLLVTGRGALRLHPMAIDGPVDSFAPFHNVNCPRGFLYFNRQGELRISVLPAYLSYDAPWPVRKIPLRCTAHYVAYHVESKVYAVATSTNTPCARIPRMTGEEKEFETIERDERYIHPQQEAFSIQLISPVSWEAIPNARIELQEWEHVTCMKTVSLRSEETVSGLKGYVAAGTCLMQGEEVTCRGRILIMDVIEVVPEPGQPLTKNKFKVLYEKEQKGPVTALCHCNGHLVSAIGQKIFLWSLRASELTGMAFIDTQLYIHQMISVKNFILAADVMKSISLLRYQEESKTLSLVSRDAKPLEVYSVDFMVDNAQLGFLVSDRDRNLMVYMYLPEAKESFGGMRLLRRADFHVGAHVNTFWRTPCRGATEGLSKKSVVWENKHITWFATLDGGIGLLLPMQEKTYRRLLMLQNALTTMLPHHAGLNPRAFRMLHVDRRTLQNAVRNVLDGELLNRYLYLSTMERSELAKKIGTTPDIILDDLLETDRVTAHF
